The list shows only some results of the screen, not a fair sample: it gathers tests that were run many times, whatever their T/C, doses with no T/C, and many T/C values between a quarter and a half above the control. Further doses and runs are listed elsewhere. T/C gives the treated animals as a percentage of the vehicle group. Some entries give survivors of the animals treated and no T/C: the source files T/C as zero there, which appears to mark a toxic dose or a test without result, not a measured value. Some doses without a T/C left all or most animals alive at the check, yet need not have been tolerated: survival well below the control is almost never listed, so the zero probably covers shortened survival too. Counts of survivors are from the toxicity check (mostly the fifth day) where no day follows; animals may have died later. Schedules are NCI's codes, taken here to give the interval after Q, in days (D) or hours (H), and the number of doses after X. Additions like (4×) say how often a value occurs here. Some entries hold several experiments; their values stand side by side, smallest first. Some schedules carry Z or #; the key to these is not given. Where survival is the endpoint, the PubChem record calls one and a half times the control and up active, and a quarter to a half above the control has no call in these data; cut-offs in other NCI protocols can differ.
System: CD2F1 mice, L1210 leukemia ip, survival T/C
Assay: NCI In Vivo Anticancer Drug Screen. Data for tumor model L1210 Leukemia (intraperitoneal) in CD2F1 (CDF1) mice
Settings: higher T/C = longer survival
Method in brief: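 Mice carrying a transplanted tumor received test compound or vehicle alone. The value is the measurement in the treated group divided by that in the vehicle-treated control group.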

[1] = T/C endpoint: mean survival time, dose: 400.0 mg/kg/injection, schedule: Q01DX009 (ip), vehicle: saline with Tween-80
[2] = T/C endpoint: mean survival time, dose: 300.0 mg/kg/injection, schedule: Q01DX001 (ip), vehicle: saline
[3] = T/C endpoint: mean survival time, dose: 400.0 mg/kg/injection, schedule: Q04DX003 (ip), vehicle: saline with Tween-80
[4] = T/C endpoint: mean survival time, dose: 75.0 mg/kg/injection, schedule: Q01DX001 (ip), vehicle: other
[5] = T/C endpoint: mean survival time, dose: 150.0 mg/kg/injection, schedule: Q01DX001 (ip), vehicle: other
[6] = T/C endpoint: mean survival time, dose: 300.0 mg/kg/injection, schedule: Q01DX001 (ip), vehicle: other
[7] = T/C endpoint: mean survival time, dose: 200.0 mg/kg/injection, schedule: Q04DX002 (ip), vehicle: saline with Tween-80
[8] = T/C endpoint: mean survival time, dose: 400.0 mg/kg/injection, schedule: Q04DX002 (ip), vehicle: saline with Tween-80
[9] = T/C endpoint: mean survival time, dose: 20.0 mg/kg/injection, schedule: Q01DX009 (ip), vehicle: Klucel (hydroxypropylcellulose) (HPC)

Compound: CN(C)Cc1ccccc1
- survivor count (T/C endpoint: mean survival time, dose: 400.0 mg/kg/injection, schedule: Q01DX001 (ip), vehicle: saline with Tween-80): 0 of 6

Compound: C(=C\c1ccccn1)/c1ccccc1
- survivor count [1]: 1 of 6

Compound: CCCCCCCCCCCCCCCC(=O)N(CCCN(C)C)c1ccc(N(CCCN(C)C)C(=O)CCCCCCCCCCCCCCC)cc1
- survivor count (T/C endpoint: mean survival time, dose: 12.5 mg/kg/injection, schedule: Q01DX009 (ip), vehicle: saline with Tween-80): 3 of 6
- survivor count (T/C endpoint: mean survival time, dose: 25.0 mg/kg/injection, schedule: Q01DX009 (ip), vehicle: saline with Tween-80): 3 of 6
- survivor count (T/C endpoint: mean survival time, dose: 50.0 mg/kg/injection, schedule: Q01DX009 (ip), vehicle: saline with Tween-80): 1 of 6
- survivor count (T/C endpoint: mean survival time, dose: 100.0 mg/kg/injection, schedule: Q01DX009 (ip), vehicle: saline with Tween-80): 2 of 6
- survivor count (T/C endpoint: mean survival time, dose: 200.0 mg/kg/injection, schedule: Q01DX009 (ip), vehicle: saline with Tween-80): 0 of 6
- survivor count [1]: 0 of 6

Compound: CC(C)(Cc1ccc([N+](=O)[O-])cc1)[N+](=O)[O-]
- survivor count [2]: 1 of 6

Compound: NC(CC[Se]Cc1ccccc1)C(=O)O (stereo not drawn)
- survivor count [3]: 1 of 6

Compound: O=C(O)CCCCCCCC(=O)O
- survivor count (T/C endpoint: median survival time, dose: 200.0 mg/kg/injection, schedule: Q01DX009 (ip), vehicle: distilled water + Tween-80): 2 of 6

Compound: CCN(CC)C(=S)SC
- survivor count [2]: 0 of 6

Compound: CC1(C)C2CC=C(C[P+](c3ccccc3)(c3ccccc3)c3ccccc3)C1C2 (stereo not drawn)
- survivor count (T/C endpoint: mean survival time, dose: 10.0 mg/kg/injection, schedule: Q01DX009 (ip), vehicle: saline sonified): 3 of 6
- survivor count (T/C endpoint: mean survival time, dose: 20.0 mg/kg/injection, schedule: Q01DX009 (ip), vehicle: saline sonified): 2 of 6

Compound: CCCCCC(=O)N1CCCC1
- survivor count [3]: 1 of 6

Compound: CCC(=C\c1sc2ccc3ccccc3c2[n+]1CC)/C=C1/Sc2ccc3ccccc3c2N1CC
- survivor count [4]: 0 of 6
- survivor count [5]: 0 of 6
- survivor count [6]: 0 of 6

Compound: Nc1ccc(OCCCc2ccccc2)c([N+](=O)[O-])c1
- survivor count (T/C endpoint: mean survival time, dose: 400.0 mg/kg/injection, schedule: Q01DX001 (ip), vehicle: other): 0 of 3 and 1 of 6
- survivor count (T/C endpoint: mean survival time, dose: 400.0 mg/kg/injection, schedule: Q04DX003 (ip), vehicle: other): 2 of 6

Compound: C/C=C(\Cl)C1=CC(=O)C23CC2C2(C)COC1(O)C3(O)O2 (stereo not drawn)
- survivor count (T/C endpoint: mean survival time, dose: 12.0 mg/kg/injection, schedule: Q01DX009 (ip), vehicle: saline with Tween-80): 0 of 6

Compound: CC1C(=O)OC2C1CCC1(C)C=CC(=O)C(C)C21 (stereo not drawn)
- survivor count (T/C endpoint: mean survival time, dose: 100.0 mg/kg/injection, schedule: Q04DX002 (ip), vehicle: saline with Tween-80): 0 of 3
- survivor count [7]: 0 of 3
- survivor count [8]: 0 of 3 (2×)

Compound: O=C(O)c1cc(Br)c(-c2c(Br)cc(C(=O)O)cc2[N+](=O)[O-])c([N+](=O)[O-])c1
- survivor count [1]: 3 of 6

Compound: CC(CO)CCC(=O)C(C)C1C2(CC3C4CCC5CC(O)CCC5(C)C4CCC31C)SCCS2 (stereo not drawn)
- survivor count [7]: 3 of 3

Compound: NC(=S)N/N=C1\CC2CC1C1C=CCC21 (stereo not drawn)
- survivor count [8]: 0 of 3

Compound: COCCNC(=S)SCCN(C(C)C)C(C)C
- survivor count (T/C endpoint: mean survival time, dose: 200.0 mg/kg/injection, schedule: Q01DX001 (sc), vehicle: olive oil, sesame oil, peanut oil): 1 of 6
- survivor count (T/C endpoint: mean survival time, dose: 400.0 mg/kg/injection, schedule: Q01DX001 (sc), vehicle: olive oil, sesame oil, peanut oil): 0 of 6

Compound: Cc1cc(Br)ccc1[NH-].Cc1cc(Br)ccc1[NH-].[Cl][Pt+2][Cl]
- survivor count (T/C endpoint: mean survival time, dose: 140.0 mg/kg/injection, schedule: Q04DX003 (ip), vehicle: saline with Tween-80): 3 of 3

Compound: N#CCc1[nH]nc2ncnc(N)c12
- survivor count (T/C endpoint: mean survival time, dose: 200.0 mg/kg/injection, schedule: Q01DX005 (ip), vehicle: water): 2 of 6

Compound: c1ccc2c(NCCCCCCCCNc3c4ccccc4nc4ccccc34)c3ccccc3nc2c1
- T/C (T/C endpoint: mean survival time, dose: 2.5 mg/kg/injection, schedule: Q01DX009 (ip), vehicle: Klucel (hydroxypropylcellulose) (HPC)): 130 % of control
- T/C (T/C endpoint: mean survival time, dose: 10.0 mg/kg/injection, schedule: Q01DX009 (ip), vehicle: Klucel (hydroxypropylcellulose) (HPC)): 128 % of control
- T/C [9]: 125 % of control
- survivor count [9]: 4 of 10
- survivor count (T/C endpoint: mean survival time, dose: 40.0 mg/kg/injection, schedule: Q01DX009 (ip), vehicle: Klucel (hydroxypropylcellulose) (HPC)): 2 of 10, 5 of 6, 6 of 6
- survivor count (T/C endpoint: mean survival time, dose: 80.0 mg/kg/injection, schedule: Q01DX009 (ip), vehicle: Klucel (hydroxypropylcellulose) (HPC)): 0 of 6

Compound: CC([NH-])CC(C)[NH-].[Br][Pt+2][Br] (stereo not drawn)
- T/C (T/C endpoint: mean survival time, dose: 6.25 mg/kg/injection, schedule: Q04DX003 (ip), vehicle: saline with Tween-80): 134 (2×) and 142 % of control
- T/C (T/C endpoint: mean survival time, dose: 12.5 mg/kg/injection, schedule: Q04DX003 (ip), vehicle: saline with Tween-80): 134 and 136 % of control

Compound: CSc1nc(SC)c2c3c(N)ncnc3n(C3OC(CO)C(O)C3O)c2n1 (stereo not drawn)
- T/C (T/C endpoint: mean survival time, dose: 50.0 mg/kg/injection, schedule: Q01DX005 (ip), vehicle: other): 125 % of control
- T/C (T/C endpoint: mean survival time, dose: 100.0 mg/kg/injection, schedule: Q01DX005 (ip), vehicle: other): 125 % of control
- T/C (T/C endpoint: mean survival time, dose: 200.0 mg/kg/injection, schedule: Q01DX005 (ip), vehicle: other): 130 and 145 % of control
- T/C (T/C endpoint: mean survival time, dose: 300.0 mg/kg/injection, schedule: Q01DX005 (ip), vehicle: other): 136 % of control

Compound: O=C(O)CC(=O)O.[NH-]C1CCCCC1C1CCCCC1[NH-].[Pt+2] (stereo not drawn)
- T/C (T/C endpoint: mean survival time, dose: 25.0 mg/kg/injection, schedule: Q04DX003 (ip), vehicle: distilled water + Tween-80): 133 % of control

Compound: CC1CCC(NC(=O)NCCF)CC1 (stereo not drawn)
- survivor count [6]: 0 of 6

Compound: CN1CCN=C1c1ccc(NC(=O)c2ccc(C(=O)Nc3ccc(C4=NCCN4C)cc3)c(N)c2)cc1
- survivor count (T/C endpoint: mean survival time, dose: 9.0 mg/kg/injection, schedule: Q01DX Z (ip), vehicle: water): 1 of 6
- survivor count (T/C endpoint: mean survival time, dose: 12.0 mg/kg/injection, schedule: Q01DX Z (ip), vehicle: water): 0 of 6
- survivor count (T/C endpoint: mean survival time, dose: 24.0 mg/kg/injection, schedule: Q01DX Z (ip), vehicle: water): 0 of 6
- survivor count (T/C endpoint: mean survival time, dose: 48.0 mg/kg/injection, schedule: Q01DX Z (ip), vehicle: water): 0 of 6

Compound: Cc1c([N+](=O)[O-])cc(C(C)(C)C)c(OS(C)(=O)=O)c1[N+](=O)[O-]
- survivor count [7]: 3 of 3
- survivor count [8]: 3 of 3

Compound: O=C1N(c2ccccc2)CCS1(=O)=O
- survivor count [4]: 0 of 6
- survivor count [5]: 0 of 6
- survivor count [6]: 0 of 6

Compound: Nc1cccc(Oc2ccc([N+](=O)[O-])cc2)c1
- survivor count (T/C endpoint: mean survival time, dose: 400.0 mg/kg/injection, schedule: Q01DX001 (ip), vehicle: Klucel (hydroxypropylcellulose) (HPC)): 3 of 3

Compound: Nc1nc2c(ncn2-c2ccc(OCCNC(=O)Nc3cc(S(=O)(=O)F)ccc3Cl)cc2)c(=O)[nH]1 (tested in a mixture with another compound)
- survivor count (T/C endpoint: mean survival time, dose: 300.0 mg/kg/injection, schedule: Q01DX001 (ip), vehicle: saline with Tween-80): 6 of 6

Compound: CCOC(=O)CN1C(=O)C(Cl)=C(Cl)C1=O
- survivor count (T/C endpoint: mean survival time, dose: 25.0 mg/kg/injection, schedule: Q04DX003 (ip), vehicle: saline with Tween-80): 0 of 6
- survivor count (T/C endpoint: mean survival time, dose: 50.0 mg/kg/injection, schedule: Q04DX003 (ip), vehicle: saline with Tween-80): 0 of 6

— PubChem BioAssay AID256 (DTP/NCI, 2004)
